Results from publication PMC5746398.
These are yes or no findings as the source states them, for the method shown. Binding seen in cells or lysates may run through a third protein. Some results given as binding are weak or reduced against the parent protein; the word gives no strength.

Protein sequences, listed by entry. Tags and fused reporters are not part of them.
UniProt Q9ULT8: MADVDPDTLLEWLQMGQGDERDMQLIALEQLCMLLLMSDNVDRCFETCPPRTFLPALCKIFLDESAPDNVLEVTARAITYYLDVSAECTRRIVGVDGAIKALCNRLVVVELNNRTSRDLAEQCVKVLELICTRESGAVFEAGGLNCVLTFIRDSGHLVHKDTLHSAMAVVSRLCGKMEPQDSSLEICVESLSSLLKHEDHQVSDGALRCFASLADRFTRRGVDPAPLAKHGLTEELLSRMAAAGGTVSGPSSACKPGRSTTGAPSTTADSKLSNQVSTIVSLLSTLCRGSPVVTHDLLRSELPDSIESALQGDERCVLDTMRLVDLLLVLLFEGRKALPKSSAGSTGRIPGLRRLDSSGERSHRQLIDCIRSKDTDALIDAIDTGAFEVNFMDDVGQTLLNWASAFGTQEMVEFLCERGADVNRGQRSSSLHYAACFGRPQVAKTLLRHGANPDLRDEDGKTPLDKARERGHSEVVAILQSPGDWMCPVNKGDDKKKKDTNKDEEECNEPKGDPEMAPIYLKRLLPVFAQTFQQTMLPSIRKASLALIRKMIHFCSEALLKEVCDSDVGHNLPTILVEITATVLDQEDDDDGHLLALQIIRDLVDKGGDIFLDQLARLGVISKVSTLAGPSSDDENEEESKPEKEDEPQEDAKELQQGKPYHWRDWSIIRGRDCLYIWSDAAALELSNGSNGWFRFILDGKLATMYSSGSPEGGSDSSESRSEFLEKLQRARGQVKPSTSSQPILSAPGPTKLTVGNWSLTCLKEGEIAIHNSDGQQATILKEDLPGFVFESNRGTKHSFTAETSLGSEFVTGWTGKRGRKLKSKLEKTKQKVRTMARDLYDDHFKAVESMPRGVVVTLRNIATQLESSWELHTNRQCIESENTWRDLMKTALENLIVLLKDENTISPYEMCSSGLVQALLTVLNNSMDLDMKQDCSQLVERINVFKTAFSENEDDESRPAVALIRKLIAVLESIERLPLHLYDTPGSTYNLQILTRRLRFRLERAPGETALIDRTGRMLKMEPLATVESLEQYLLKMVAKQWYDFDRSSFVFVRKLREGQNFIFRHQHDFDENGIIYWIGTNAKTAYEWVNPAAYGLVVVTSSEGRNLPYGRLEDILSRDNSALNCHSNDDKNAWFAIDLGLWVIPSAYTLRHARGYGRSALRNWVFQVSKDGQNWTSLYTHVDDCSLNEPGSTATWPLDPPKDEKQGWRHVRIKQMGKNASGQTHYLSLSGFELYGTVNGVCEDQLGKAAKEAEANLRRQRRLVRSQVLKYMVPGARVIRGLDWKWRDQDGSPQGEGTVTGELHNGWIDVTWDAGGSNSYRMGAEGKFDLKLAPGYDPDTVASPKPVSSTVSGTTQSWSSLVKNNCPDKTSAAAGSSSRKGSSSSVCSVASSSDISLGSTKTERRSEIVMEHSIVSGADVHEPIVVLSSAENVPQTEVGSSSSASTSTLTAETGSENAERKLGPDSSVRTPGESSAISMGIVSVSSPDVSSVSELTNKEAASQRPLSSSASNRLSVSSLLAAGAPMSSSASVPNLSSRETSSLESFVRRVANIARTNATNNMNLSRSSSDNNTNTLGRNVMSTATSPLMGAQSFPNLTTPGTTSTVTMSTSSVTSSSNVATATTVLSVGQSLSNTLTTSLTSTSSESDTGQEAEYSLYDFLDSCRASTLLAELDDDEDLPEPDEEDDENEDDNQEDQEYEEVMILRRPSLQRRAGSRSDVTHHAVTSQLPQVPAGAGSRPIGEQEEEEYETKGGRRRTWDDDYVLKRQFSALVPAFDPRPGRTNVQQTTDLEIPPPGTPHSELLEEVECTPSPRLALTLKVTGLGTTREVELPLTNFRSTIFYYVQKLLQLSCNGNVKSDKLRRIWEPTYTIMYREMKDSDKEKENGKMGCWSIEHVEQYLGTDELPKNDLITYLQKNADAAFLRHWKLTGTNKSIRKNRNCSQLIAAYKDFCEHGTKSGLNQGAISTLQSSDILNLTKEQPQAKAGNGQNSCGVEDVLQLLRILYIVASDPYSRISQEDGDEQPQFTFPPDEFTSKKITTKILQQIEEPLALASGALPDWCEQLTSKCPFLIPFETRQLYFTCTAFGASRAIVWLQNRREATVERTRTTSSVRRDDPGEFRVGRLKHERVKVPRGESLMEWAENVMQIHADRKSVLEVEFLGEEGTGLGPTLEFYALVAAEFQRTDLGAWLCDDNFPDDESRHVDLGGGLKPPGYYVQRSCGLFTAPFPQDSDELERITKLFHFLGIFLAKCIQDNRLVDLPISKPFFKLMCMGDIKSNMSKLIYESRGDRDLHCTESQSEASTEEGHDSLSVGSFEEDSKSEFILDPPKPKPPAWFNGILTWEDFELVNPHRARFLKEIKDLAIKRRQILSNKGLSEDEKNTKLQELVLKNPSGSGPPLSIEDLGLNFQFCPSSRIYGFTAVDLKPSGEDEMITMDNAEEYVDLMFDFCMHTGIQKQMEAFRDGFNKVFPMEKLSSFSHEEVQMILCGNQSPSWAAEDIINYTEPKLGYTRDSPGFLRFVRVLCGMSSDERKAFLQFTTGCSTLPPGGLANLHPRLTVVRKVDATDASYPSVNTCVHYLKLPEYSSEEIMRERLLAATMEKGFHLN
UniProt Q9H4L5: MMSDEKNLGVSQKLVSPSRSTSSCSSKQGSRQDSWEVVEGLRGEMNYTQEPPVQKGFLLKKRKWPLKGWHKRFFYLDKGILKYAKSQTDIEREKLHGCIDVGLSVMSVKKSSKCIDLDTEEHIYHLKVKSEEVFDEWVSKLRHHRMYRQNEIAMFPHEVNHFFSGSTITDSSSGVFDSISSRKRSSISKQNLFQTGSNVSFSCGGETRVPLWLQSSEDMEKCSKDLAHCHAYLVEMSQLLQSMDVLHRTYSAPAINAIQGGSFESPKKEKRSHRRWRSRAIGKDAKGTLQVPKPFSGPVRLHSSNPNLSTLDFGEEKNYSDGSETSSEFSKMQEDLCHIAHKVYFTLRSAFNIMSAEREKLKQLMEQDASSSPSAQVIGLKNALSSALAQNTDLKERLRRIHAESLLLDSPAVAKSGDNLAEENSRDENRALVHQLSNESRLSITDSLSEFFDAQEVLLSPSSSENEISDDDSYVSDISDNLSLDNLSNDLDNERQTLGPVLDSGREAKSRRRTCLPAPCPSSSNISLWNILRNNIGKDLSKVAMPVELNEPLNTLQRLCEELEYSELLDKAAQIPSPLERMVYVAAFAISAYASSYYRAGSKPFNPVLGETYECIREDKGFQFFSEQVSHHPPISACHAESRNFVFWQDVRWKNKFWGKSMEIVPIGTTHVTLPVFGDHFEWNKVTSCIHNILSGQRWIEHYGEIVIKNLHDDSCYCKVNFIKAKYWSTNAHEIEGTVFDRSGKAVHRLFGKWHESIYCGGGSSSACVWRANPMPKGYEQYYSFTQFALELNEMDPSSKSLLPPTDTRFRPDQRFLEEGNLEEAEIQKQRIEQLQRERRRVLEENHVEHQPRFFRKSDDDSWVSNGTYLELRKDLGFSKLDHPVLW

B1: Kinesin Family Member 15 (KIF15) (protein, UniProt Q9NS87 1-1388)
chain: MAPGCKTELRSVTNGQSNQPSNEGDAIKVFVRIRPPAERSGSADGEQNLCLSVLSSTSLRLHSNPEPKTFTFDHVADVDTTQESVFATVAKSIVESCMSGYNGTIFAYGQTGSGKTFTMMGPSESDNFSHNLRGVIPRSFEYLFSLIDREKEKAGAGKSFLCKCSFIEIYNEQIYDLLDSASAGLYLREHIKKGVFVVGAVEQVVTSAAEAYQVLSGGWRNRRVASTSMNRESSRSHAVFTITIESMEKSNEIVNIRTSLLNLVDLAGSERQKDTHAEGMRLKEAGNINRSLSCLGQVITALVDVGNGKQRHVCYRDSKLTFLLRDSLGGNAKTAIIANVHPGSRCFGETLSTLNFAQRAKLIKNKAVVNEDTQGNVSQLQAEVKRLKEQLAELASGQTPPESFLTRDKKKTNYMEYFQEAMLFFKKSEQEKKSLIEKVTQLEDLTLKKEKFIQSNKMIVKFREDQIIRLEKLHKESRGGFLPEEQDRLLSELRNEIQTLREQIEHHPRVAKYAMENHSLREENRRLRLLEPVKRAQEMDAQTIAKLEKAFSEISGMEKSDKNQQGFSPKAQKEPCLFANTEKLKAQLLQIQTELNNSKQEYEEFKELTRKRQLELESELQSLQKANLNLENLLEATKACKRQEVSQLNKIHAETLKIITTPTKAYQLHSRPVPKLSPEMGSFGSLYTQNSSILDNDILNEPVPPEMNEQAFEAISEELRTVQEQMSALQAKLDEEEHKNLKLQQHVDKLEHHSTQMQELFSSERIDWTKQQEELLSQLNVLEKQLQETQTKNDFLKSEVHDLRVVLHSADKELSSVKLEYSSFKTNQEKEFNKLSERHMHVQLQLDNLRLENEKLLESKACLQDSYDNLQEIMKFEIDQLSRNLQNFKKENETLKSDLNNLMELLEAEKERNNKLSLQFEEDKENSSKEILKVLEAVRQEKQKETAKCEQQMAKVQKLEESLLATEKVISSLEKSRDSDKKVVADLMNQIQELRTSVCEKTETIDTLKQELKDINCKYNSALVDREESRVLIKKQEVDILDLKETLRLRILSEDIERDMLCEDLAHATEQLNMLTEASKKHSGLLQSAQEELTKKEALIQELQHKLNQKKEEVEQKKNEYNFKMRQLEHVMDSAAEDPQSPKTPPHFQTHLAKLLETQEQEIEDGRASKTSLEHLVTKLNEDREVKNAEILRMKEQLREMENLRLESQQLIEKNWLLQGQLDDIKRQKENSDQNHPDNQQLKNEQEESIKERLAKSKIVEEMLKMKADLEEVQSALYNKEMECLRMTDEVERTQTLESKAFQEKEQLRSKLEEMYEERERTSQEMEMLRKQVECLAEENGKLVGHQNLHQKIQYVVRLKKENVRLAEETEKLRAENVFLKEKKRSES

Each molecule was assayed against T1, Ubiquitin Specific Peptidase 15 (USP15) (human (endogenous in LN-229, LN-428, LN-18)) (UniProt Q9Y4E8) (assay: co-IP; IP of endogenous USP15 from LN-229 (HECTD1 also from LN-428 and LN-18) protein extracts, Western blot with antibodies against the partner; control IP with rabbit IgG).
T1 sequence: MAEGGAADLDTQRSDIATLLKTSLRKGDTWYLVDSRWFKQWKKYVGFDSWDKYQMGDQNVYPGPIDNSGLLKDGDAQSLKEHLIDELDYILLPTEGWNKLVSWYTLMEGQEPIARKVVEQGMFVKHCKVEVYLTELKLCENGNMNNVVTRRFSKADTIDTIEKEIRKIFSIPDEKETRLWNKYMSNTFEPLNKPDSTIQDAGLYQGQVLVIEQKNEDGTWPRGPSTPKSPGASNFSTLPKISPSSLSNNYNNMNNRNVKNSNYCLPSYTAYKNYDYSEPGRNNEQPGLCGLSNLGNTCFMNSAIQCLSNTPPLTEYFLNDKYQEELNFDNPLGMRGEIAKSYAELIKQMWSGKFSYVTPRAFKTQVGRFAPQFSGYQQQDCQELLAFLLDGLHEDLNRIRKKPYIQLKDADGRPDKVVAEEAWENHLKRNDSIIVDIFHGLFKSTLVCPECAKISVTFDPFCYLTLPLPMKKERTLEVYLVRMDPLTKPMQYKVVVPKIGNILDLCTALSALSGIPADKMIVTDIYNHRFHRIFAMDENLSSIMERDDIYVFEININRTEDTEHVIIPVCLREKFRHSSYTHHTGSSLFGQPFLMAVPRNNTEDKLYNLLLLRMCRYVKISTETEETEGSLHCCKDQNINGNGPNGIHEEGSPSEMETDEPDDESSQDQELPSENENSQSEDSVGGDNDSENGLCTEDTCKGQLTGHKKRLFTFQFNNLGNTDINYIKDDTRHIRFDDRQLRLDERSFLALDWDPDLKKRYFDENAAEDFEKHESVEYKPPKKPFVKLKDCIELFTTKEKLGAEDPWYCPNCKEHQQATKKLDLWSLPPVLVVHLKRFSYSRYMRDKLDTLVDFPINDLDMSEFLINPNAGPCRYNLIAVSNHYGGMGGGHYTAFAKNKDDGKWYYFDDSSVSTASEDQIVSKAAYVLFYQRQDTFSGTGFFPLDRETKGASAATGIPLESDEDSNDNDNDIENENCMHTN
In the case of “HECT Domain Containing E3 Ubiquitin Protein Ligase 1 (HECTD1) (from UniProt Q9ULT8 1-2610)”, the binding is reported as “binds”.
In the case of “Oxysterol Binding Protein-Like 3 (OSBPL3) (from UniProt Q9H4L5 1-887)”, the binding is reported as “binds”.
In the case of B1, the binding is reported as “binds”.
